From paper PMC3431373 come the findings set out here.

No constants are given. Whether binding was seen depends on the method and setting. Binding seen in cells or lysates may run through a third protein. Some results given as binding are weak or reduced against the parent protein; the word gives no strength.

The target in this assay is T1, Full-length HNF4α overexpressed in MIN6 cells (human) (UniProt P41235).
T1 sequence: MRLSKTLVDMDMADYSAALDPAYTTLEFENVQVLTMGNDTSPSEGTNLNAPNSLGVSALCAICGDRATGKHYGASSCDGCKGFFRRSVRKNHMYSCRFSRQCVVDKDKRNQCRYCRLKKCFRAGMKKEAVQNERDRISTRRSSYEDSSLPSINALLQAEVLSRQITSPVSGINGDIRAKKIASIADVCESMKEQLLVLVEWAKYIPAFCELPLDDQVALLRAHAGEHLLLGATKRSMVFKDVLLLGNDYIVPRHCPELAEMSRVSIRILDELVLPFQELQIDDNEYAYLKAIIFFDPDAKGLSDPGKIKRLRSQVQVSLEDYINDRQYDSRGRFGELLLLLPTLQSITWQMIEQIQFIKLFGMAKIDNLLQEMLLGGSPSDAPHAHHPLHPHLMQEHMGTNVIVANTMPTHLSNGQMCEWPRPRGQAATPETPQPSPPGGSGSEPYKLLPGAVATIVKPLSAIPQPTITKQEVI
Description: co-IP; MIN6 cells transfected with HNF4α and MED25 (or MED25 NR); lysates in 50 mM Tris pH 7.4, 150 mM NaCl, 1 mM EDTA, 0.5% NP-40, 5% glycerol; immunoprecipitation with HNF4α antibody or control IgG, Western blot with MED25 antibody. In general terms: A western blot detects proteins with antibodies after separation by electrophoresis.

B1: Full-length MED25 overexpressed in MIN6 cells (protein, UniProt Q71SY5 1-747)
chain: MVPGSEGPARAGSVVADVVFVIEGTANLGPYFEGLRKHYLLPAIEYFNGGPPAETDFGGDYGGTQYSLVVFNTVDCAPESYVQCHAPTSSAYEFVTWLDGIKFMGGGGESCSLIAEGLSTALQLFDDFKKMREQIGQTHRVCLLICNSPPYLLPAVESTTYSGCTTENLVQQIGERGIHFSIVSPRKLPALRLLFEKAAPPALLEPLQPPTDVSQDPRHMVLVRGLVLPVGGGSAPGPLQSKQPVPLPPAAPSGATLSAAPQQPLPPVPPQYQVPGNLSAAQVAAQNAVEAAKNQKAGLGPRFSPITPLQQAAPGVGPPFSQAPAPQLPPGPPGAPKPPPASQPSLVSTVAPGSGLAPTAQPGAPSMAGTVAPGGVSGPSPAQLGAPALGGQQSVSNKLLAWSGVLEWQEKPKPASVDANTKLTRSLPCQVYVNHGENLKTEQWPQKLIMQLIPQQLLTTLGPLFRNSRMVQFHFTNKDLESLKGLYRIMGNGFAGCVHFPHTAPCEVRVLMLLYSSKKKIFMGLIPYDQSGFVNGIRQVITNHKQVQQQKLEQQQRGMGGQQAPPGLGPILEDQARPSQNLLQLRPPQPQPQGTVGASGATGQPQPQGTAQPPPGAPQGPPGAASGPPPPGPILRPQNPGANPQLRSLLLNPPPPQTGVPPPQASLHHLQPPGAPALLPPPHQGLGQPQLGPPLLHPPPAQSWPAQLPPRAPLPGQMLLSGGPRGPVPQPGLQPSVMEDDILMDLI
On to B1, for which the binding result is “binds”.

B2: MED25 NR (LXXLL mutant) overexpressed in MIN6 cells (protein, UniProt Q71SY5 1-747)
chain: MVPGSEGPARAGSVVADVVFVIEGTANLGPYFEGLRKHYLLPAIEYFNGGPPAETDFGGDYGGTQYSLVVFNTVDCAPESYVQCHAPTSSAYEFVTWLDGIKFMGGGGESCSLIAEGLSTALQLFDDFKKMREQIGQTHRVCLLICNSPPYLLPAVESTTYSGCTTENLVQQIGERGIHFSIVSPRKLPALRLLFEKAAPPALLEPLQPPTDVSQDPRHMVLVRGLVLPVGGGSAPGPLQSKQPVPLPPAAPSGATLSAAPQQPLPPVPPQYQVPGNLSAAQVAAQNAVEAAKNQKAGLGPRFSPITPLQQAAPGVGPPFSQAPAPQLPPGPPGAPKPPPASQPSLVSTVAPGSGLAPTAQPGAPSMAGTVAPGGVSGPSPAQLGAPALGGQQSVSNKLLAWSGVLEWQEKPKPASVDANTKLTRSLPCQVYVNHGENLKTEQWPQKLIMQLIPQQLLTTLGPLFRNSRMVQFHFTNKDLESLKGLYRIMGNGFAGCVHFPHTAPCEVRVLMLLYSSKKKIFMGLIPYDQSGFVNGIRQVITNHKQVQQQKLEQQQRGMGGQQAPPGLGPILEDQARPSQNLLQLRPPQPQPQGTVGASGATGQPQPQGTAQPPPGAPQGPPGAASGPPPPGPILRPQNPGANPQLRSAALNPPPPQTGVPPPQASLHHLQPPGAPALLPPPHQGLGQPQLGPPLLHPPPAQSWPAQLPPRAPLPGQMLLSGGPRGPVPQPGLQPSVMEDDILMDLI
On to B2, for which the binding result was “binds weakly”.
